# Laboratory results as given in the supplement of paper PMC8728848.
# The list shows a part of the results.
# B1: SJCP1084 (Schistosoma japonicum) (protein)
# chain: MRIINLVIISTALLLINLLQTKSQANGEDTKNGTPDDPGLTKSTELKVEVQALLKDKKTNMRVKWNENLLDNTKPEYHNLRDEACELLLQIVRSVVPLSQDDGECKDVTFTKYVVGTKDGAVNVKLTITFKDSVAINQKPMDLKLKLENDFKNLQSESTLKATKPTFTVKVEKRLIPISKPQTTPPTTAKNDASKENVGDIGGEDSTVPTAAPATAASANEEKDEGDKDNKDSQHPNVLTSNVNDRNLIIALVALMILAIGVALTAAVKQR
# Legend:
# Assay in all cases: glycan array binding signal (z-score within array); higher = stronger binding
# Settings in all cases: glycan notation: IUPAC condensed, linker removed
# [1] = molecular target: Neu5Ac(a2-3)Gal(b1-4)GlcNAc(b1-6)GalNAc
# Method in brief: (§1)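 Glycan array data came from 3228 arrays in the Consortium for Functional Glycomics database, and only arrays with an available protein sequence were kept. Glycan names were put into IUPAC-condensed notation, and columns mapping to the same glycan were averaged. The binding signal is a within-array Z-score, averaged across arrays of one protein sequence run at different concentrations or buffers and across linkers. A negative Z-score can be read as non-binding.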
# [2] = molecular target: Neu5Ac(a2-3)Gal(b1-4)GlcNAc(b1-6)[Gal(b1-3)]GalNAc
# Method in brief: as §1
# [3] = molecular target: Neu5Ac(a2-3)Gal(b1-4)GlcNAc(b1-6)[Neu5Ac(a2-3)Gal(b1-3)]GalNAc
# Method in brief: as §1
# [4] = molecular target: Neu5Ac(a2-3)Gal(b1-4)GlcNAc6S
# Method in brief: as §1
# [5] = molecular target: Neu5Ac(a2-3)Gal(b1-4)[Fuc(a1-3)]GlcNAc
# Method in brief: as §1
# [6] = molecular target: Neu5Ac(a2-3)Gal(b1-4)[Fuc(a1-3)]GlcNAc(b1-2)Man
# Method in brief: as §1
# [7] = molecular target: Neu5Ac(a2-3)Gal(b1-4)[Fuc(a1-3)]GlcNAc(b1-3)Gal
# Method in brief: as §1
# [8] = molecular target: Neu5Ac(a2-3)Gal(b1-4)[Fuc(a1-3)]GlcNAc(b1-3)Gal(b1-4)GlcNAc
# Method in brief: as §1
# [9] = molecular target: Neu5Ac(a2-3)Gal(b1-4)[Fuc(a1-3)]GlcNAc(b1-3)Gal(b1-4)[Fuc(a1-3)]GlcNAc(b1-3)Gal(b1-4)[Fuc(a1-3)]GlcNAc
# Method in brief: as §1
# [10] = molecular target: Neu5Ac(a2-3)Gal(b1-4)[Fuc(a1-3)]GlcNAc(b1-3)GalNAc
# Method in brief: as §1
# [11] = molecular target: Neu5Ac(a2-3)Gal(b1-4)[Fuc(a1-3)]GlcNAc(b1-6)[Gal(b1-3)]GalNAc
# Method in brief: as §1
# [12] = molecular target: Neu5Ac(a2-3)Gal(b1-4)[Fuc(a1-3)]GlcNAc(b1-6)[Neu5Ac(a2-3)Gal(b1-3)]GalNAc
# Method in brief: as §1
# [13] = molecular target: Neu5Ac(a2-3)Gal(b1-4)[Fuc(a1-3)]GlcNAc6S
# Method in brief: as §1
# [14] = molecular target: Neu5Ac(a2-3)Gal6S(b1-4)GlcNAc
# Method in brief: as §1
# [15] = molecular target: Neu5Ac(a2-3)Gal6S(b1-4)[Fuc(a1-3)]GlcNAc
# Method in brief: as §1
# Neu5Ac(a2-3)GalNAc = molecular target: Neu5Ac(a2-3)GalNAc
# Method in brief: as §1
# [16] = molecular target: Neu5Ac(a2-3)GalNAc(b1-4)GlcNAc
# Method in brief: as §1
# [17] = molecular target: Neu5Ac(a2-3)[GalNAc(b1-4)]Gal(b1-4)Glc
# Method in brief: as §1
# [18] = molecular target: Neu5Ac(a2-3)[GalNAc(b1-4)]Gal(b1-4)GlcNAc
# Method in brief: as §1
# [19] = molecular target: Neu5Ac(a2-3)[GalNAc(b1-4)]Gal(b1-4)GlcNAc(b1-3)GalNAc
# Method in brief: as §1
# [20] = molecular target: Neu5Ac(a2-3)[Neu5Ac(a2-6)]GalNAc
# Method in brief: as §1
# Neu5Ac(a2-6)Gal = molecular target: Neu5Ac(a2-6)Gal
# Method in brief: as §1
# [21] = molecular target: Neu5Ac(a2-6)Gal(b1-3)GlcNAc(b1-3)[Gal(b1-4)GlcNAc(b1-6)]Gal(b1-4)Glc
# Method in brief: as §1
# Neu5Ac(a2-6)Gal(b1-4)Glc = molecular target: Neu5Ac(a2-6)Gal(b1-4)Glc
# Method in brief: as §1
# [22] = molecular target: Neu5Ac(a2-6)Gal(b1-4)GlcNAc
# Method in brief: as §1
# [23] = molecular target: Neu5Ac(a2-6)Gal(b1-4)GlcNAc(b1-2)Man
# Method in brief: as §1
# [24] = molecular target: Neu5Ac(a2-6)Gal(b1-4)GlcNAc(b1-2)Man(a1-3)Man(b1-4)GlcNAc(b1-4)GlcNAc
# Method in brief: as §1
# [25] = molecular target: Neu5Ac(a2-6)Gal(b1-4)GlcNAc(b1-2)Man(a1-3)[Gal(b1-4)GlcNAc(b1-2)Man(a1-6)]Man(b1-4)GlcNAc(b1-4)GlcNAc
# Method in brief: as §1
# [26] = molecular target: Neu5Ac(a2-6)Gal(b1-4)GlcNAc(b1-2)Man(a1-3)[GlcNAc(b1-2)Man(a1-6)]Man(b1-4)GlcNAc(b1-4)GlcNAc
# Method in brief: as §1
# [27] = molecular target: Neu5Ac(a2-6)Gal(b1-4)GlcNAc(b1-2)Man(a1-3)[GlcNAc(b1-4)][Neu5Ac(a2-6)Gal(b1-4)GlcNAc(b1-2)Man(a1-6)]Man(b1-4)GlcNAc(b1-4)GlcNAc
# Method in brief: as §1
# [28] = molecular target: Neu5Ac(a2-6)Gal(b1-4)GlcNAc(b1-2)Man(a1-3)[Man(a1-6)]Man(b1-4)GlcNAc(b1-4)GlcNAc
# Method in brief: as §1
# [29] = molecular target: Neu5Ac(a2-6)Gal(b1-4)GlcNAc(b1-2)Man(a1-3)[Neu5Ac(a2-3)Gal(b1-4)GlcNAc(b1-2)Man(a1-6)]Man(b1-4)GlcNAc(b1-4)GlcNAc
# Method in brief: as §1
# [30] = molecular target: Neu5Ac(a2-6)Gal(b1-4)GlcNAc(b1-2)Man(a1-3)[Neu5Ac(a2-6)Gal(b1-4)GlcNAc(b1-2)Man(a1-6)]Man(b1-4)GlcNAc(b1-4)GlcNAc
# Method in brief: as §1
# [31] = molecular target: Neu5Ac(a2-6)Gal(b1-4)GlcNAc(b1-2)Man(a1-3)[Neu5Ac(a2-6)Gal(b1-4)GlcNAc(b1-2)Man(a1-6)]Man(b1-4)GlcNAc(b1-4)[Fuc(a1-6)]GlcNAc
# Method in brief: as §1
# [32] = molecular target: Neu5Ac(a2-6)Gal(b1-4)GlcNAc(b1-2)Man(a1-6)Man(b1-4)GlcNAc(b1-4)GlcNAc
# Method in brief: as §1
# [33] = molecular target: Neu5Ac(a2-6)Gal(b1-4)GlcNAc(b1-2)Man(a1-6)[Gal(b1-4)GlcNAc(b1-2)Man(a1-3)]Man(b1-4)GlcNAc(b1-4)GlcNAc
# Method in brief: as §1
# [34] = molecular target: Neu5Ac(a2-6)Gal(b1-4)GlcNAc(b1-2)Man(a1-6)[GlcNAc(b1-2)Man(a1-3)]Man(b1-4)GlcNAc(b1-4)GlcNAc
# Method in brief: as §1
# [35] = molecular target: Neu5Ac(a2-6)Gal(b1-4)GlcNAc(b1-2)Man(a1-6)[Man(a1-3)]Man(b1-4)GlcNAc(b1-4)GlcNAc
# Method in brief: as §1
# [36] = molecular target: Neu5Ac(a2-6)Gal(b1-4)GlcNAc(b1-2)[Neu5Ac(a2-6)Gal(b1-4)GlcNAc(b1-4)]Man(a1-3)[GlcNAc(b1-4)][Neu5Ac(a2-6)Gal(b1-4)GlcNAc(b1-2)[Neu5Ac(a2-6)Gal(b1-4)GlcNAc(b1-6)]Man(a1-6)]Man(b1-4)GlcNAc(b1-4)GlcNAc
# Method in brief: as §1
# [37] = molecular target: Neu5Ac(a2-6)Gal(b1-4)GlcNAc(b1-2)[Neu5Ac(a2-6)Gal(b1-4)GlcNAc(b1-4)]Man(a1-3)[GlcNAc(b1-4)][Neu5Ac(a2-6)Gal(b1-4)GlcNAc(b1-4)Man(a1-6)]Man(b1-4)GlcNAc(b1-4)GlcNAc
# Method in brief: as §1
# [38] = molecular target: Neu5Ac(a2-6)Gal(b1-4)GlcNAc(b1-2)[Neu5Ac(a2-6)Gal(b1-4)GlcNAc(b1-6)]Man(a1-6)[Neu5Ac(a2-6)Gal(b1-4)GlcNAc(b1-2)Man(a1-3)][GlcNAc(b1-4)]Man(b1-4)GlcNAc(b1-4)GlcNAc
# Method in brief: as §1
# [39] = molecular target: Neu5Ac(a2-6)Gal(b1-4)GlcNAc(b1-3)Gal(b1-3)GlcNAc
# Method in brief: as §1
# [40] = molecular target: Neu5Ac(a2-6)Gal(b1-4)GlcNAc(b1-3)Gal(b1-4)GlcNAc
# Method in brief: as §1
# [41] = molecular target: Neu5Ac(a2-6)Gal(b1-4)GlcNAc(b1-3)Gal(b1-4)GlcNAc(b1-2)Man(a1-3)[Neu5Ac(a2-6)Gal(b1-4)GlcNAc(b1-3)Gal(b1-4)GlcNAc(b1-2)Man(a1-6)]GalNAc
# Method in brief: as §1
# [42] = molecular target: Neu5Ac(a2-6)Gal(b1-4)GlcNAc(b1-3)Gal(b1-4)GlcNAc(b1-3)Gal(b1-4)GlcNAc
# Method in brief: as §1
# [43] = molecular target: Neu5Ac(a2-6)Gal(b1-4)GlcNAc(b1-3)Gal(b1-4)GlcNAc(b1-3)Gal(b1-4)GlcNAc(b1-2)Man(a1-3)[Neu5Ac(a2-6)Gal(b1-4)GlcNAc(b1-3)Gal(b1-4)GlcNAc(b1-3)Gal(b1-4)GlcNAc(b1-2)Man(a1-6)]GalNAc
# Method in brief: as §1
binder,measurement,setting,value
B1,glycan array binding signal (z-score),[1],-0.741
same,glycan array binding signal (z-score),[2],0.427
same,glycan array binding signal (z-score),[3],-1.15
same,glycan array binding signal (z-score),[4],0.4
same,glycan array binding signal (z-score),[5],-1.17
same,glycan array binding signal (z-score),[6],-0.338
same,glycan array binding signal (z-score),[7],0.594
same,glycan array binding signal (z-score),[8],0.127
same,glycan array binding signal (z-score),[9],0.379
same,glycan array binding signal (z-score),[10],1.42
same,glycan array binding signal (z-score),[11],-0.394
same,glycan array binding signal (z-score),[12],-0.511
same,glycan array binding signal (z-score),[13],-0.23
same,glycan array binding signal (z-score),[14],-0.608
same,glycan array binding signal (z-score),[15],-1.71
same,glycan array binding signal (z-score),Neu5Ac(a2-3)GalNAc,-0.344
same,glycan array binding signal (z-score),[16],-0.229
same,glycan array binding signal (z-score),[17],-0.474
same,glycan array binding signal (z-score),[18],-0.641
same,glycan array binding signal (z-score),[19],-0.221
same,glycan array binding signal (z-score),[20],-0.81
same,glycan array binding signal (z-score),Neu5Ac(a2-6)Gal,0.41
same,glycan array binding signal (z-score),[21],-0.092
same,glycan array binding signal (z-score),Neu5Ac(a2-6)Gal(b1-4)Glc,-0.667
same,glycan array binding signal (z-score),[22],-0.162
same,glycan array binding signal (z-score),[23],0.296
same,glycan array binding signal (z-score),[24],-0.358
same,glycan array binding signal (z-score),[25],-0.083
same,glycan array binding signal (z-score),[26],1.47
same,glycan array binding signal (z-score),[27],0.136
same,glycan array binding signal (z-score),[28],-0.25
same,glycan array binding signal (z-score),[29],0.504
same,glycan array binding signal (z-score),[30],0.066
same,glycan array binding signal (z-score),[31],1.05
same,glycan array binding signal (z-score),[32],-0.756
same,glycan array binding signal (z-score),[33],0.299
same,glycan array binding signal (z-score),[34],0.744
same,glycan array binding signal (z-score),[35],0.566
same,glycan array binding signal (z-score),[36],-0.658
same,glycan array binding signal (z-score),[37],-0.623
same,glycan array binding signal (z-score),[38],-0.863
same,glycan array binding signal (z-score),[39],-1.27
same,glycan array binding signal (z-score),[40],-0.877
same,glycan array binding signal (z-score),[41],1.12
same,glycan array binding signal (z-score),[42],-0.373
same,glycan array binding signal (z-score),[43],2.19

# Random excerpt: four records from the list, in no set order.
binder,measurement,setting,value
B1,glycan array binding signal (z-score),[3],-1.15
same,glycan array binding signal (z-score),[19],-0.221
same,glycan array binding signal (z-score),[39],-1.27
same,glycan array binding signal (z-score),Neu5Ac(a2-6)Gal(b1-4)Glc,-0.667
